Results from patent publication US20150297741A1, “BIO-ORTHOGONAL DRUG ACTIVATION” (TAGWORKS PHARMACEUTICALS B.V., priority 2012, published 2015).
The name of at least one read-out is uncertain.

Test: Tetrazine-induced deprotection (TCO activation) under various conditions
Method: In addition, the tetrazine-induced TCO activation was studied under the same conditions. […] In addition to amines, also hydroxy and carboxylic acids form stable conjugates with TCO and can subsequently be cleaved in a range of conditions.
The TCO stock solution (10 μL 25 mM in acetonitrile; 2.5*10^−7 mol) was added to a solution of the specific condition (100 μL). A solution of 3,6-dimethyl-1,2,4,5-tetrazine (8, 20 uL 25 mM in acetonitrile; 5.0*10^−7 mol) was added, and the mixture was stirred at the specific condition for a certain amount of time. The reaction was monitored by HPLC-MS/PDA analysis and/or GC-MS analysis, and the percentage of deprotection was estimated.
Conditions: A) in acetonitrile with 5 equivalents of pyridine per TCO at 20° C.
B) in acetonitrile with 5 equivalents of DIPEA per TCO at 20° C. C) in acetonitrile with 5 equivalents of piperidine per TCO at 20° C. D) in acetonitrile with 5 equivalents of n-butylamine per TCO at 20° C. E) in acetonitrile with 5 equivalents of 2-mercaptoethanol per TCO at 20° C. F) in tetrahydrofuran with 5 equivalents of triphenylphosphine per TCO at 20° C. G) in acetonitrile with 5 equivalents of DCC per TCO at 20° C. H) in acetonitrile with 5 equivalents of PyBOP per TCO at 20° C. I) in acetonitrile with 1 v % of formic acid at 20° C. J) in chloroform at 20° C. K) in chloroform with 1 v % of formic acid at 20° C. L) in chloroform with 1 v % of trifluoroacetic acid at 20° C. M) in chloroform with 10 v % of trifluoroacetic acid at 20° C. N) in chloroform with 33 v % of trifluoroacetic acid at 20° C. Z) in 25% acetonitrile in water at 20° C.

SMILES | Deprotection: t1/2 (0.1M NH4OAc buffer, pH = 7.0, 20° C.) [min] | Deprotection: t1/2 (0.1M NH4OAc buffer, pH = 8.0, 20° C.) [min] | Deprotection: t1/2 (0.1M NH4OAc buffer, pH = 9.0, 20° C.) [min] | Deprotection: t1/2 (in PBS buffer, 20° C.)
N[C@H]1CC/C=C/CCC1NC(=O)Oc1ccccc1 (some centres unmarked) | 140 | 25 | 4.6 | 
NC1/C=C/CCCCC1NC(=O)Oc1ccccc1 (centres unmarked) |  |  |  | t1/2 = 70 min
NC1CCCC/C=C/C1NC(=O)Oc1ccccc1 (centres unmarked) |  |  |  | t1/2 = 100 min
